{"source": "patent US4455303A", "about": "(priority 1983, dated 1984)", "key": {"[1]": {"assay": "general procedure: Boc solid-phase peptide synthesis; benzhydrylamine resin (0.40 mM NH2/g; 0.44 mMol amine/g) or LS-601 Merrifield resin (0.75 mM Cl/g); dicyclohexylcarbodiimide (DCC); BOP", "conditions": "for step yield: purification step; for crude yield / crude mass: whole synthesis"}, "[2]": {"assay": "general procedure: Boc solid-phase peptide synthesis; p-methylbenzhydrylamine; dicyclohexylcarbodiimide (DCC); BOP", "conditions": "whole synthesis, scale 208 umol"}, "[3]": {"assay": "general procedure: Boc solid-phase peptide synthesis; benzhydrylamine; dicyclohexylcarbodiimide (DCC); BOP"}, "[4]": {"assay": "general procedure: Boc solid-phase peptide synthesis; chloromethyl (Merrifield) polymer; dicyclohexylcarbodiimide (DCC); BOP", "conditions": "purification step"}}}
{"substance": "4-chlorophenylalanylphenylalanylvalyltyrosyllysine-amide", "values": [{"measurement": "step yield", "setting": "[1]", "value": 58, "unit": "%"}, {"measurement": "crude yield", "setting": "[1]", "value": 100, "unit": "%"}, {"measurement": "crude mass", "setting": "[1]; scale 150 umol", "value": 0.24, "unit": "g"}]}
{"substance": "Phenylalanyl-4-chlorophenylalanylvalyltyrosyllysineamide", "values": [{"measurement": "step yield", "setting": "[1]", "value": 49, "unit": "%"}, {"measurement": "crude mass", "setting": "[1]; scale 150 umol", "value": 0.210, "unit": "g"}]}
{"substance": "Phenylalanyl-4-iodophenylalanylvalyltyrosyllysine-amide", "values": [{"measurement": "step yield", "setting": "[1]", "value": 75, "unit": "%"}, {"measurement": "crude mass", "setting": "[1]; scale 234 umol", "value": 0.233, "unit": "g"}]}
{"substance": "Phenylalanyl-O-methyltyrosylvalyltyrosyllysine-amide", "values": [{"measurement": "step yield", "setting": "[1]", "value": 91, "unit": "%"}, {"measurement": "crude mass", "setting": "[1]; scale 234 umol", "value": 0.229, "unit": "g"}]}
{"substance": "Phenylalanylphenylalanyl-threo-3-chloro-L-2-amino-butyryltyrosyllysine amide", "values": [{"measurement": "step yield", "setting": "[1]", "value": 55, "unit": "%"}, {"measurement": "crude mass", "setting": "[1]; scale 150 umol", "value": 0.240, "unit": "g"}]}
{"substance": "Phenylalanylphenylalanylthreonyltyrosyllysine-amide", "values": [{"measurement": "step yield", "setting": "[1]", "value": 56, "unit": "%"}, {"measurement": "crude mass", "setting": "[1]; scale 150 umol", "value": 0.20, "unit": "g"}]}
{"substance": "Phenylalanylphenylalanylvalyl-4-chlorophenylalanyllysine-amide", "values": [{"measurement": "step yield", "setting": "[1]", "value": 56, "unit": "%"}, {"measurement": "crude mass", "setting": "[1]; scale 208 umol", "value": 0.21, "unit": "g"}]}
{"substance": "Phenylalanylphenylalanylvalylphenylalanyllysine-amide", "values": [{"measurement": "step yield", "setting": "[1]", "value": 62, "unit": "%"}, {"measurement": "crude mass", "setting": "[2]", "value": 0.18, "unit": "g"}]}
{"substance": "Phenylalanylphenylalanylvalyltyrosyl-D-lysine-amide", "values": [{"measurement": "step yield", "setting": "[3]; purification step", "value": "(40%)"}]}
{"substance": "Phenylalanylphenylalanylvalyltyrosyllysine", "values": [{"measurement": "step yield", "setting": "[4]", "value": 40, "unit": "%"}]}
{"substance": "Phenylalanylphenylalanylvalyltyrosyllysine-amide", "values": [{"measurement": "step yield", "setting": "[1]", "value": 67, "unit": "%"}, {"measurement": "crude yield", "setting": "[1]", "value": 100, "unit": "%"}, {"measurement": "crude mass", "setting": "[3]; whole synthesis, scale 150 umol", "value": 240, "unit": "mg"}]}
{"substance": "Phenylalanyltyrosylvalyltyrosyllysine-amide", "values": [{"measurement": "step yield", "setting": "[1]", "value": 62, "unit": "%"}, {"measurement": "crude mass", "setting": "[1]; scale 150 umol", "value": 0.23, "unit": "g"}]}
{"substance": "Tyrosylphenylalanylvalyltyrosyllysine-amide", "values": [{"measurement": "step yield", "setting": "[1]", "value": 44, "unit": "%"}, {"measurement": "crude yield", "setting": "[1]", "value": 100, "unit": "%"}, {"measurement": "crude mass", "setting": "[1]; scale 150 umol", "value": 0.230, "unit": "g"}]}
